Measured values: PMC5342071, “A first generation inhibitor of human Greatwall kinase, enabled by structural and functional characterisation of a minimal kinase domain construct” (Oncotarget, 2016)
No constants are given. Whether binding was seen depends on the method and setting. Some entries that bind do so weakly or less than the wild type.

Sequences of proteins named here, by UniProt entry; tags and fusion partners are left off.
UniProt P0A6F5: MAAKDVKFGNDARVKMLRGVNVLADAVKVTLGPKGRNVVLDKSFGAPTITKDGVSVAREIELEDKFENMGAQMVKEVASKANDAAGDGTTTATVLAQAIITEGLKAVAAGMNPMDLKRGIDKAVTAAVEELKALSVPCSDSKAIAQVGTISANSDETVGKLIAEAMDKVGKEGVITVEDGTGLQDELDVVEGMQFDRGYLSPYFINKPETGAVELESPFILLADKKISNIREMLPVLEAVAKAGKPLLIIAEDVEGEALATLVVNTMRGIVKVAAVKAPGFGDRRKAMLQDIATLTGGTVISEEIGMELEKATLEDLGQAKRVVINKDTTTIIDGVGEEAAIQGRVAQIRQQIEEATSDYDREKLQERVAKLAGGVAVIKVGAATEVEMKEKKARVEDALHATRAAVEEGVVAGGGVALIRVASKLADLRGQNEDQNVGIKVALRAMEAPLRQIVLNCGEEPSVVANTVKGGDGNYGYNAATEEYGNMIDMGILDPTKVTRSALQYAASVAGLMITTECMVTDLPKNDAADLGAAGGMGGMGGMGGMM

Key:
[1] = target: GST-hGWL-KinDom fusion (minimal kinase domain construct of human Greatwall kinase, NCMR replaced by 'RTFC' of PKCα) (human) (UniProt Q96GX5); test: co-purification on glutathione resin; GST-hGWL-KinDom expressed in E. coli and purified by standard chromatography (Amintra Glutathione Resin); host GroEL came with the fusion
[2] = target: GST-hGWL-KinDom fusion (minimal kinase domain construct of human Greatwall kinase, NCMR replaced by 'RTFC' of PKCα) (human) (UniProt Q96GX5); test: co-purification on glutathione resin; as a1, but the co-purified GST-hGWL-KinDom/GroEL was incubated with ATP to release GroEL

binding [1]: binds
Substance: E.coli chaperone GroEL (from UniProt P0A6F5 1-548)
binding [2]: no binding (condition: incubation with ATP)
